Here are results for 78 compounds from PMC12040169 (PLOS Biology, 2025).

The other results are listed elsewhere or left out.

The subject of the test is T1, CTL2-GFP (C. trachomatis L2/434/Bu, GFP-expressing).
T1 construct: L2/434/Bu, GFP-expressing
Also noted: species or system HeLa; Intracellular C. trachomatis growth in HeLa cells, bulk GFP fluorescence relative to DMSO. Conditions: bulk GFP, single well; 28.5 h, 10 µM; inhibitor.
For the compound `Nc1ccc(-c2cncc(NCCc3ccccn3)n2)cc1` [CBK065632], the “% of control remaining” value came out at 160.557%.

For `Clc1ccc(COc2ccc(/C=N/Nc3nc(N4CCOCC4)nc(N4CCOCC4)n3)cc2)c(Cl)c1` [CBK262061], the “% of control remaining” value is given as 104.441%.

On to `Cc1ccccc1C(NC(=O)C1CCN(C(=O)OCc2ccccc2)CC1)c1ccc(=O)[nH]c1` (stereo not drawn) [CBK083200], for which the “% of control remaining” value amounted to 109.535%.

As for `c1ccc2c(Sc3nccnc3N3CCCC3)cccc2c1` [CBK089527], the “% of control remaining” value was determined as 102.231%.

On to `O=C1CC(C(=O)N2CCN(c3ncccn3)CC2)c2ccccc21` (stereo not drawn) [CBK144505], for which the “% of control remaining” value is on record as 103.289%.

With `CN(Cc1ccccc1)Cc1cc(CC2(NCc3ccccc3)COC2)no1` [CBK289645], the “% of control remaining” value is reported as 129.861%.

For the compound `O=C(CN1CCC2(CC1)CN(CCO)c1ccccc12)Nc1ccc(F)c(Cl)c1` [CBK126761], the “% of control remaining” value stood at 106.301%.

As for `FC(F)(F)c1ccncc1-n1cccc1` [CBK021909], the “% of control remaining” value is 116.505%.

Regarding `O=C(CSc1nnc(-c2cccnc2)n1-c1ccccc1)Nc1ccc(Br)cc1` [CBK265203], the “% of control remaining” value is 114.87%.

`CN1CCN(c2cc(N3CCN(C(=O)c4ccc(F)cc4F)CC3)c([N+](=O)[O-])cc2F)CC1` [CBK265280]: the “% of control remaining” value came to 117.58%.

As to `O=C(Nc1nn(Cc2ccc(Oc3ccccc3)cc2)c2ccccc12)c1ccno1` [CBK048224], the “% of control remaining” value was 79.1251%.

In the case of `O=C(NCC1CCCO1)c1ccc(-n2ccnc2)c(-n2cccc2)c1` (stereo not drawn) [CBK285356], the “% of control remaining” value is 141.331%.

`COc1ccc(CC(=O)Nc2nc(OC)cnc2-c2ccoc2)cc1` [CBK145435]: the “% of control remaining” value turned out to be 128.686%.

Take `CCCOc1ccc(C(N)CC(=O)O)cc1` (stereo not drawn) [CBK261360]: the “% of control remaining” value is reported as 122.845%.

As to `COc1ccccc1C1(O)CCN(CC(O)c2ccc(C(C)(C)C)cc2)CC1` (stereo not drawn) [CBK286335], the “% of control remaining” value is listed as 91.8009%.

Turning to `Cn1nc(C(=O)NCc2ccccc2)cc1C(=O)NCc1ccccc1` [CBK270004], the “% of control remaining” value came to 111.469%.

In the case of `O=C(CSc1ccccn1)Nc1ccccc1-c1ccccc1` [CBK263553], the “% of control remaining” value is 80.674%.

Consider `C=Cn1ncc(CN(CCCn2ccnc2)CC2CC=CCC2)c1C` (stereo not drawn) [CBK283219], for which the “% of control remaining” value amounted to 124.51%.

`CC(C)Oc1ncc(C(=O)Nc2cnn(CC(N)=O)c2)cc1Cl` [CBK306311]: the “% of control remaining” value came to 80.0962%.

As to `CC(C)(CO)CNc1cncc(-c2cccnc2)n1` [CBK037881], the “% of control remaining” value is reported as 116.695%.

On to `CCOc1cc(C(=S)N2CCOCC2)ccc1OCc1ccccc1` [CBK027466], for which the “% of control remaining” value came to 118.186%.

With `C=CCN1C(=O)C2(Nc3ccccc3C(=O)N2c2ccc(Cl)cc2)c2ccccc21` (stereo not drawn) [CBK093474], the “% of control remaining” value is 79.3878%.

As to `CC(=O)N1CCc2ccc(NC(=O)c3cc(-c4ccc(C(=O)N5CCOCC5)cc4)cnc3N)cc21` [CBK160205], the “% of control remaining” value is reported as 113.024%.

On to `Nc1cc(N)nc(SCc2cccnc2)n1` [CBK267459], for which the “% of control remaining” value is 144.89%.

Consider `CC(Cc1ccccn1)N(C)C(=O)c1cnn(-c2ccc(F)cc2)c1` (stereo not drawn) [CBK283316], for which the “% of control remaining” value was 118.546%.

Turning to `COc1ccc([C@@]23CC[C@@H](NC(=O)c4ccc5c(c4)OC(F)(F)O5)C[C@@H]2N(C)CC3)cc1OC` [CBK076658T], the “% of control remaining” value turned out to be 110.305%.

Take `CSCCC(=O)Nc1cc(C)nc2ccccc12` [CBK122729]: the “% of control remaining” value was found to be 103.624%.

Regarding `O=C(C1CCCCC1)N1CCCC1c1n[nH]cc1-c1ccncc1` (stereo not drawn) [CBK283434], the “% of control remaining” value is 139.609%.

Consider `CN(C)Cc1c(O)ccc2occ(C(O)c3ccccc3)c12` (stereo not drawn) [CBK261313], for which the “% of control remaining” value is reported as 100%.

As for `Cc1cc(Cl)c(S(=O)(=O)Nc2ccon2)cc1OCC(N)=O` [CBK266589], the “% of control remaining” value is listed as 177.846%.

With `CSc1ccc(-c2nc(NC(=O)C(C)C)cc3ccccc23)cc1` [CBK085735], the “% of control remaining” value is 125.531%.

Consider `CCN1c2ccc(-c3cncn3CC(=O)NC(C)(C)C)cc2CC1C` (stereo not drawn) [CBK281815], for which the “% of control remaining” value was determined as 130.502%.

In the case of `O=C(c1cc[nH]n1)N1CCCCC1c1ncc(-c2cccc(F)c2)[nH]1` (stereo not drawn) [CBK291217], the “% of control remaining” value is listed as 129.243%.

For the compound `CCc1[nH]nc(O)c1Cc1c(Cl)cccc1Cl` [CBK105304], the “% of control remaining” value is recorded as 204.202%.

For the compound `CN1CCC(N2CCN(C(=O)c3cncc(-c4ccc(C(=O)N5CCOCC5)cc4)c3)CC2)CC1` [CBK158600], the “% of control remaining” value was 85.3685%.

On to `CC(=O)c1cc(CN(C)C(C)c2ccncn2)cs1` (stereo not drawn) [CBK307470], for which the “% of control remaining” value was 125.455%.

For the compound `O=C(CC1CC1)Nc1cc(-c2ccncc2)c[nH]c1=O` [CBK116585], the “% of control remaining” value is recorded as 118.323%.

Turning to `COc1ccc(C(=O)NCCc2ccc(S(N)(=O)=O)cc2)cc1[N+](=O)[O-]` [CBK264335], the “% of control remaining” value turned out to be 122.937%.

In the case of `CC(=O)c1cc(CCCO)n(Cc2ccco2)c1C` [CBK022013], the “% of control remaining” value turned out to be 101.202%.

Regarding `Cn1c(CN2C[C@H](O)C[C@H]2c2nc(-c3ccccc3)no2)nc2ccccc21` [CBK288834], the “% of control remaining” value amounted to 139.631%.

As for `CCN(C(=O)c1ccncc1)C(CC1CCCCC1)c1ccccc1` (stereo not drawn) [CBK061674], the “% of control remaining” value stood at 95.688%.

Take `O=[N+]([O-])c1ccccc1/C=N/Nc1nnn[nH]1` [CBK260971]: the “% of control remaining” value was found to be 73.4909%.

For the compound `O=C1N=C(NC2CCCC2)OC12CCN(Cc1ccccc1)CC2` [CBK115430], the “% of control remaining” value came out at 145.696%.

In the case of `CCn1c(COc2ccccc2)nnc1Sc1ccc([N+](=O)[O-])cc1C=O` [CBK267888], the “% of control remaining” value is on record as 60.9632%.

For `Cc1nn2c(COc3ccc(NC(=O)C4CCCCC4)cc3)nnc2c2ccccc12` [CBK268528], the “% of control remaining” value amounted to 89.3759%.

With `NC(=O)CN1CCN(c2nccnc2OCc2ccc(Cl)c(Cl)c2)CC1` [CBK083079T], the “% of control remaining” value is given as 61.0558%.

In the case of `Cc1cc(NC(=O)CN2CCC(CNc3ncccc3C#N)C2)on1` (stereo not drawn) [CBK306127], the “% of control remaining” value stood at 114.75%.

Consider `Cc1ccc(CNCCn2nnc(-c3ccc(CN4CCC(C)CC4)cc3)n2)cc1` [CBK154882T], for which the “% of control remaining” value is on record as 116.235%.

For the compound `Cc1csc(NC(=O)CN2CCC(c3ccc(F)cc3)CC2)n1` [CBK283567], the “% of control remaining” value amounted to 128.879%.

For `CCc1nccn1CCC(=O)NC(c1ccc(C)cc1)c1cccnc1` (stereo not drawn) [CBK282032], the “% of control remaining” value came to 126.787%.

`O=C(COc1cc(C(=O)O)nc2ccccc12)NCc1ccc(Cl)cc1` [CBK287247]: the “% of control remaining” value amounted to 130.793%.

In the case of `CN(C)S(=O)(=O)c1ccc(C(=O)C2=C(O)C(=O)N(CCN3CCOCC3)C2c2ccco2)cc1` (stereo not drawn) [CBK264521], the “% of control remaining” value worked out at 100%.

In the case of `CCOc1ccc(S(=O)(=O)N2CCCN(Cc3ccc(C#N)cc3)CC2)c2cccnc12` [CBK062759], the “% of control remaining” value was 54.3283%.

Turning to `Cc1noc(C)c1C(=O)N1CCN(Cc2ccco2)C[C@@H]1C(C)C` [CBK284248], the “% of control remaining” value is recorded as 119.537%.

With `O=C(NC1CCN(CC(F)(F)F)C1=O)c1ccnc(C2CC2)n1` (stereo not drawn) [CBK306268], the “% of control remaining” value was determined as 121.74%.

As to `CCN1CCN(C(=O)c2ccc(N(C)C)cc2)CC1` [CBK200252], the “% of control remaining” value stood at 161.316%.

Turning to `Cc1ccc(Cn2nc(NC(=O)c3ccccc3)c3ccccc32)cc1` [CBK048213], the “% of control remaining” value came out at 88.7593%.

Regarding `CC1Oc2ccc(S(=O)(=O)Nc3ccc(CCC(=O)O)cc3)cc2NC1=O` (stereo not drawn) [CBK299769], the “% of control remaining” value turned out to be 191.028%.

Consider `Cc1c(NC(=S)NC(=O)Cc2ccccc2)cccc1-c1nc2ncccc2o1` [CBK264345], for which the “% of control remaining” value came to 54.1242%.

Take `O=C1Nc2ccc(Br)cc2C(=O)N2CCN(C(=O)c3ccccc3)C[C@H]12` [CBK289589]: the “% of control remaining” value was 119.098%.

On to `CC1CCc2c(sc(NC(=O)COc3ccccc3)c2C(=O)Nc2ccccc2Cl)C1` (stereo not drawn) [CBK263044], for which the “% of control remaining” value is recorded as 95.598%.

As for `O=C(O)c1cc(Sc2nnnn2-c2ccccc2)c2ccccc2c1O` [CBK006925], the “% of control remaining” value is 118.97%.

For `Cc1ccc(Cl)cc1NC(=O)c1cc(NC(=O)C2CC=CCC2C(=O)O)ccc1N1CCOCC1` (stereo not drawn) [CBK268479], the “% of control remaining” value is given as 119.63%.

`COc1ccccc1NC(=O)c1cn(Cc2ccc(N)cc2)cn1` [CBK288045]: the “% of control remaining” value came out at 102.137%.

With `Clc1ccc(COc2cccc(CNCc3ccccn3)c2)c(Cl)c1` [CBK270060C], the “% of control remaining” value is on record as 142.291%.

In the case of `O=C1c2ccccc2CN1CCNS(=O)(=O)c1ccc2oc3ccccc3c2c1` [CBK264918], the “% of control remaining” value is listed as 110.812%.

For `Cc1nc(-c2ccccc2)sc1C(=O)C1=C(O)C(=O)N(CCN(C)C)C1c1ccc(Cl)cc1` (stereo not drawn) [CBK266595], the “% of control remaining” value stood at 167.068%.

As for `O=C(NCCO)c1cccc(-c2cncc(N3CCCCC3CCO)n2)c1` (stereo not drawn) [CBK037759], the “% of control remaining” value is 156.212%.

Turning to `Cn1cnnc1SCC(=O)c1cccc(C(F)(F)F)c1` [CBK067718], the “% of control remaining” value is on record as 99.807%.

Turning to `Cc1nc(N2CCCCC2)ncc1C(=O)NCCc1cc[nH]n1` [CBK307035], the “% of control remaining” value is reported as 135.72%.

Turning to `Cc1cc(C(C)NC(=O)C2CCCN(S(C)(=O)=O)C2)c(C)s1` (stereo not drawn) [CBK305464], the “% of control remaining” value is recorded as 128.142%.

Consider `COc1cc(CO)cc(I)c1OCC(=O)Nc1ccccc1` [CBK265950], for which the “% of control remaining” value is on record as 101.886%.

As for `CCCn1cnc2sc(C(=O)Nc3ccc(C)cc3C)c(C)c2c1=O` [CBK071815], the “% of control remaining” value was 100%.

For `OC1CCC(Nc2cncc(-c3cccc4ccccc34)n2)CC1` (stereo not drawn) [CBK065902], the “% of control remaining” value is given as 149.939%.

With `COc1ccc(Oc2ccc(C=Cc3nc4sc(C(=O)O)c(C)c4c(=O)[nH]3)cc2[N+](=O)[O-])cc1` [CBK295637], the “% of control remaining” value was 135.029%.

Turning to `CCN(CC)C(=O)CCNC(=O)c1ccc2c(c1)COC(C1CCN(C(=O)OC(C)(C)C)CC1)O2` (stereo not drawn) [CBK173273], the “% of control remaining” value is 103.521%.

On to `CC(C)Cc1ccc(C(CC(=O)O)C(=O)O)cc1` (stereo not drawn) [CBK286703], for which the “% of control remaining” value is 132.493%.

For the compound `Cc1ccc(S(=O)(=O)Nc2ccccc2CNc2ccc(Br)cc2)cc1` [CBK264214], the “% of control remaining” value was determined as 86.0816%.
